Reference: patent US11932877B2, “Human fibrolamellar hepatocellular carcinomas (hFL-HCCs)” (priority 2015, dated 2024)
Entries after “also recorded” stand apart in the source; their conditions may differ.

System: hFL-HCC cells of TU-2010
Test: Cell proliferation assay (WST-1) on monolayer cultures of hFL-HCC cells
Format: cell-based, human
Details: 2 μM and 10 μM, drug added for 3 days
Procedure: For cell proliferation assays, 3×10^4 hFL-HCC cells of TU-2010 were depleted of host mesenchymal cells by magnetic sorting of xenotransplantable tumor cell suspension and then were seeded into each well of a 96-well plate and cultured overnight with Kubota's Medium+5% FBS. After 16-20 hours, the specific hedgehog inhibitor Vismodegib (GDC-0449) (Selleckchem Bio, Houston, TX) or the histone deacetylase (HDAC) inhibitors, suberic bis-hydroxamic acid (SBHA) or suberoylanilide hydroxamic acid (SAHA) (SIGMA, St. Louis, MO) were added for 3 days. Cell proliferation was evaluated using the Cell Proliferation Reagent WST-1 (Roche Applied Science, Mannheim, Germany). After incubation at 37° C. for 2 hours, the absorbance at 450 nm was measured.

## O=C(CCCCCCC(=O)Nc1ccccc1)NO [SAHA, suberoylanilide hydroxamic acid]
  inhibitory effect on hFL-HCC cell survival and growth: strongly inhibited; also recorded: strong inhibitory effects
